Assay [1] has as its target human NALCN with C-terminal GFP (human) (UniProt Q8IZF0). Description: cryo-EM structure; NALCN-GFP, FAM155A, UNC79-FLAG and UNC80 co-expressed in HEK293F, tandem affinity purified, BS3 cross-linked, SEC in 25 mM MOPS pH 7.4, 150 mM NaCl, 0.015% GDN; overall 4.5 Å, local refinement of UNC79 N-half + UNC80 C-half 3.3 Å; both purified.
The next assay concerns the target human UNC80 (human) (UniProt Q8N2C7). The description is as above.

The chains behind the UniProt entries cited, without tags or fusion partners.
UniProt Q8IZF0: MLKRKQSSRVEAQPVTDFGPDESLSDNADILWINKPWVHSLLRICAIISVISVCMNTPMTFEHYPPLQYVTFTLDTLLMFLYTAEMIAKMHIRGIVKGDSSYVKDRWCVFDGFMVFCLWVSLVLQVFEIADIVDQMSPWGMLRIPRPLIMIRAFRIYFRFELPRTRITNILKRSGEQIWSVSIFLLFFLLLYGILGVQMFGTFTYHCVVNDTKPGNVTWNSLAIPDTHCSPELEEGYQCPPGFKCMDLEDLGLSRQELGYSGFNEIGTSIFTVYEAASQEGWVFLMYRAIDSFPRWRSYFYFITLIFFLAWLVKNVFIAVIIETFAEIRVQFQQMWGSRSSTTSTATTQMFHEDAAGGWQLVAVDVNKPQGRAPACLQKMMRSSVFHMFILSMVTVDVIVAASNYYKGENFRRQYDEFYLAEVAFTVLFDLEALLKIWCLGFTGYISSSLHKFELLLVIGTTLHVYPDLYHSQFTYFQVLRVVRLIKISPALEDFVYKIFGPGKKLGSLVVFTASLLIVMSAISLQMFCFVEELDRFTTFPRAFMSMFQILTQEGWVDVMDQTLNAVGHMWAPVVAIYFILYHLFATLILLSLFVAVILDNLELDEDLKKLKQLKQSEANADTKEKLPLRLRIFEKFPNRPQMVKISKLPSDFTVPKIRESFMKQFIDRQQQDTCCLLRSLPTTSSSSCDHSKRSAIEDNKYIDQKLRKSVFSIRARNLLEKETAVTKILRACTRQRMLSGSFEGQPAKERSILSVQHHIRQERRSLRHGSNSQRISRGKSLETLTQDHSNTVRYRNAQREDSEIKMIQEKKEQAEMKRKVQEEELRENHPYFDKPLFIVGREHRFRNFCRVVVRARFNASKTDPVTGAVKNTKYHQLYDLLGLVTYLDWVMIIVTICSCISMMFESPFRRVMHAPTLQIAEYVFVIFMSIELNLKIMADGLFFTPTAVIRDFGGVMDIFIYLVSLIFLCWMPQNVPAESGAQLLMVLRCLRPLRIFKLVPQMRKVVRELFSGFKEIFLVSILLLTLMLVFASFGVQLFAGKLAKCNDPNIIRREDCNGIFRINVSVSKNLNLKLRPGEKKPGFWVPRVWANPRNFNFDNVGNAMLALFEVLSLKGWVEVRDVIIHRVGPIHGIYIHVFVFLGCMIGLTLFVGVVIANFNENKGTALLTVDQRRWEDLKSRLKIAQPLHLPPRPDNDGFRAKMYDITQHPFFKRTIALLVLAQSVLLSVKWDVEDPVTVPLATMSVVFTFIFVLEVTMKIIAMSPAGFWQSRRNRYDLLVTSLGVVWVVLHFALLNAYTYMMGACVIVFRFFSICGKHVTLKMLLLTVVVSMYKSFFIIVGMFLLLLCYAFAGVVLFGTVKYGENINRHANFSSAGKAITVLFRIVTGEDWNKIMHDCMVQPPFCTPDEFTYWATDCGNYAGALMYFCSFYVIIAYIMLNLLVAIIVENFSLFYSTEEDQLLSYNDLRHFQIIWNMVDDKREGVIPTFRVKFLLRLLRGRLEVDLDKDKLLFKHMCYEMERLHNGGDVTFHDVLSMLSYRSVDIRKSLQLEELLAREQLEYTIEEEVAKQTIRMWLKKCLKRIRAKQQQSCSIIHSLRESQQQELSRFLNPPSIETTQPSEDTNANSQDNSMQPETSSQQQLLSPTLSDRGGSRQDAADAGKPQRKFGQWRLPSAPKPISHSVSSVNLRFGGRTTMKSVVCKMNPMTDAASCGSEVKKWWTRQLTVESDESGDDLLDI
UniProt Q8N2C7: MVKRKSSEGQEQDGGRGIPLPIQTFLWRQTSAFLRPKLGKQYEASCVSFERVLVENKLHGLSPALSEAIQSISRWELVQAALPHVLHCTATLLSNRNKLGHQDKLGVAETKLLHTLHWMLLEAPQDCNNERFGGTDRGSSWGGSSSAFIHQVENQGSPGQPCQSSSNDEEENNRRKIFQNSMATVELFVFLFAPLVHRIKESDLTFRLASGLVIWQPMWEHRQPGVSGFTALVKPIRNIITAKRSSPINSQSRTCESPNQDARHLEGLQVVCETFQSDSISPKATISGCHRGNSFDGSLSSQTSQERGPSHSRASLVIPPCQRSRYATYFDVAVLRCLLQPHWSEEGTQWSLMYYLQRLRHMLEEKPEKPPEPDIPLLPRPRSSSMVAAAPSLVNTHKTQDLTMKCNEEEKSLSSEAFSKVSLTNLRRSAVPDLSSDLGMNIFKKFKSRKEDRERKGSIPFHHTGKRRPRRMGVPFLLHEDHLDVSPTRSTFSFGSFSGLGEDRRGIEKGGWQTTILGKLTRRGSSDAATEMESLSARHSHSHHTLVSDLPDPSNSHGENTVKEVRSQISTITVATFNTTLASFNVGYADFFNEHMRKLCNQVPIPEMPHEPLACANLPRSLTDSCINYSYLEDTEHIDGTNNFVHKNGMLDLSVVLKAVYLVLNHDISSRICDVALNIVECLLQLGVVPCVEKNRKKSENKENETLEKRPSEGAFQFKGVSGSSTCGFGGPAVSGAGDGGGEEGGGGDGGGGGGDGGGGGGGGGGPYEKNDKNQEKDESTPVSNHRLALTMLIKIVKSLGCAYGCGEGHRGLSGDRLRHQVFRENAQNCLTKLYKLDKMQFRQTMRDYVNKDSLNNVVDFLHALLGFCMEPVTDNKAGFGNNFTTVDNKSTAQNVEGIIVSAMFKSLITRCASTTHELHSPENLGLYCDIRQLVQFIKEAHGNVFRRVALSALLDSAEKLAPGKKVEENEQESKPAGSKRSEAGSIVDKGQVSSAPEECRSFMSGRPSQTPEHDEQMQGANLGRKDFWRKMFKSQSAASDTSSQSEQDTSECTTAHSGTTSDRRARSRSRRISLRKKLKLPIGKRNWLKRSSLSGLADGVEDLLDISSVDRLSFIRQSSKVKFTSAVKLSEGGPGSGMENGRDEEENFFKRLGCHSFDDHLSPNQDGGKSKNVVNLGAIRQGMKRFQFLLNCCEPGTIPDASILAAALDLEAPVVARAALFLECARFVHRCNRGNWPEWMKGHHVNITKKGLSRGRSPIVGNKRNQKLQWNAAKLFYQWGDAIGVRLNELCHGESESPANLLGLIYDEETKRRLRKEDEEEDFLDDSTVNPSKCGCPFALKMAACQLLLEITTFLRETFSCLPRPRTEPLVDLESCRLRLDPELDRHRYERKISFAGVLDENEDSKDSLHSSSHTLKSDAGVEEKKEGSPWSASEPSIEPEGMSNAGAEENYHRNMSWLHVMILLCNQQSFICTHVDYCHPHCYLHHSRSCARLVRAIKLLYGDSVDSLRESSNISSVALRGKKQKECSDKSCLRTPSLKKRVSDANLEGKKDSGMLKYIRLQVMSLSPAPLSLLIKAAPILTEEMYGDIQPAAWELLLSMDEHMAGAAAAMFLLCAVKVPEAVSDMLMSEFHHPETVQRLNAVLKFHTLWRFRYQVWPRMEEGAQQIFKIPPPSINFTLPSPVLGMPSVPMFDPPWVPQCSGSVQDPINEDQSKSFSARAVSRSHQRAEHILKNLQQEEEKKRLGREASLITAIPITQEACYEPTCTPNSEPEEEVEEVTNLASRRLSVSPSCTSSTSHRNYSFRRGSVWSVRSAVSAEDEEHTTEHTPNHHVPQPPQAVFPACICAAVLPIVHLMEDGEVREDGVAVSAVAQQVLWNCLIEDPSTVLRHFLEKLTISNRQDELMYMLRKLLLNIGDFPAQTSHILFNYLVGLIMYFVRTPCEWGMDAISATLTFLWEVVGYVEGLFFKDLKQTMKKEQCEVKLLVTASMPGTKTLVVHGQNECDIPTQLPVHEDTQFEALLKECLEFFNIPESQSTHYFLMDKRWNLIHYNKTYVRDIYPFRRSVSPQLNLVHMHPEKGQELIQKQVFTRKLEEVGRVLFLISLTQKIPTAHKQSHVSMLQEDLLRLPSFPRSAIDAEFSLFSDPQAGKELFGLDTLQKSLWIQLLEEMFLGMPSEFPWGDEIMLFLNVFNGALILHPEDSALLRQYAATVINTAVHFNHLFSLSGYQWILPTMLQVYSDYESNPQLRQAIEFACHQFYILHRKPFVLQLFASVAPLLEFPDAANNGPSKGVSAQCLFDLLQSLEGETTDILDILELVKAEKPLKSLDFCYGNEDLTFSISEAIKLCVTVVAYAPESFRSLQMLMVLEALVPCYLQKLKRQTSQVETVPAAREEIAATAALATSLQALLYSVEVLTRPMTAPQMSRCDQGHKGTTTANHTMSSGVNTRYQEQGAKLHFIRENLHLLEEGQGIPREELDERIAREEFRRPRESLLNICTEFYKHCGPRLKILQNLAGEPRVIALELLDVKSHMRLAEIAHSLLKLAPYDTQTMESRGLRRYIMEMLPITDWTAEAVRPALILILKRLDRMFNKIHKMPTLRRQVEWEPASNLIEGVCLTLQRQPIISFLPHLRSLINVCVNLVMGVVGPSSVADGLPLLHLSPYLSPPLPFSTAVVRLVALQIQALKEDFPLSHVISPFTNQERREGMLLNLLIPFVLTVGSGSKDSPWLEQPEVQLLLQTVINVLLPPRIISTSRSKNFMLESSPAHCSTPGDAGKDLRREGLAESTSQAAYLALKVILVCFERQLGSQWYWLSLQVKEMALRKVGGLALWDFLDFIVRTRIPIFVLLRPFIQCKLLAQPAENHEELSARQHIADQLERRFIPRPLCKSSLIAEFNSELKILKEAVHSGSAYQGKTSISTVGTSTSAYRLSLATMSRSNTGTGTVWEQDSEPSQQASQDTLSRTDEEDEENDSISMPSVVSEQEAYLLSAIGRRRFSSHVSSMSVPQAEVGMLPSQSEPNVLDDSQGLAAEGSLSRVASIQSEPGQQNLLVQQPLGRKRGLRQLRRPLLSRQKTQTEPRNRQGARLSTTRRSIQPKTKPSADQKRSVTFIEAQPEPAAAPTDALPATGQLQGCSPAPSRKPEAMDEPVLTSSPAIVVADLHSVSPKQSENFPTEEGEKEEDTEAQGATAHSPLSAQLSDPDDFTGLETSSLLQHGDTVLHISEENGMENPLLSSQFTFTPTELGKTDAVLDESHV

Results are given in words; binding and its absence hold for the method and conditions named. Some binding calls cover weakened binding; strength is not graded here.

Turning to “human UNC79 with C-terminal 2x FLAG tag (from UniProt Q9P2D8 1-2635)”, the binding result (in assay [1]; in the assay with human UNC80 (human)) was “binds” in each case.

Source of the values: paper PMC8986805.
